{"source": "PubChem BioAssay AID1224828 (NIAID, 2016)", "assay": "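Regulators linking TLR4 signalling to p65 nuclear translocation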 (primary screen)", "cells": "mouse RAW264.7 G9 macrophage reporter cells (GFP-p65, Tnf promoter-mCherry)", "reagents": "siRNA pool against mouse genes, 100 nM", "duration": "2 days siRNA transfection, then 40 min LPS before fixation", "treatment": "LPS (Salmonella minnesota R595) at 10 ng/ml", "read-out": "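Microscopy ratio of nuclear to perinuclear-ring GFP-p65 signal, scaled to the plate median; gene score is the average of two replicate robust z-scores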", "direction": "p65 translocation robust z-score: higher = more nuclear NF-kappaB p65 after LPS than the plate median; nuclear/cytoplasmic p65 ratio: higher = more nuclear NF-kappaB p65", "active means": "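Called active when z exceeds 3.3 or falls under -1.56 (median of Tlr4 controls), giving activity score of at least 50; no calls for control wells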", "calls": "active = hit (p65 shift raised or lowered); inactive = no clear change", "note": "The deposit covers about 17,000 reagents; this is a part drawn at random. 762 of all reagents (4.5%) were called active. 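Active calls include both raised and lowered p65 entry, mostly lowered; wells with fewer than 50 cells lack a z-score.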 The raw values are shown without normalisation."}
{"gene symbol": "Mpzl1", "PubChem SID": "SID315473543", "p65 translocation robust z-score": -0.1, "nuclear/cytoplasmic p65 ratio, rep 1": 1.62, "nuclear/cytoplasmic p65 ratio, rep 2": 1.36, "low cell count flag": "enough cells to score", "call": "inactive"}
{"gene symbol": "Foxc2", "PubChem SID": "SID315466706", "p65 translocation robust z-score": -1, "nuclear/cytoplasmic p65 ratio, rep 1": 1.27, "nuclear/cytoplasmic p65 ratio, rep 2": 1.27, "low cell count flag": "enough cells to score", "call": "inactive"}
{"gene symbol": "Prss58", "PubChem SID": "SID315479003", "p65 translocation robust z-score": -0.11, "nuclear/cytoplasmic p65 ratio, rep 1": 1.21, "nuclear/cytoplasmic p65 ratio, rep 2": 1.41, "low cell count flag": "enough cells to score", "call": "inactive"}
{"gene symbol": "Rtca", "PubChem SID": "SID315472393", "nuclear/cytoplasmic p65 ratio, rep 1": 1.49, "nuclear/cytoplasmic p65 ratio, rep 2": 1.13, "low cell count flag": "fewer than 50 cells per well; well left out of scoring", "call": "inactive"}
{"gene symbol": "Or8b101", "PubChem SID": "SID315480100", "p65 translocation robust z-score": 1.06, "nuclear/cytoplasmic p65 ratio, rep 1": 1.6, "nuclear/cytoplasmic p65 ratio, rep 2": 1.38, "low cell count flag": "enough cells to score", "call": "inactive"}
{"gene symbol": "Zfp324", "PubChem SID": "SID315479709", "p65 translocation robust z-score": -0.12, "nuclear/cytoplasmic p65 ratio, rep 1": 1.57, "nuclear/cytoplasmic p65 ratio, rep 2": 1.52, "low cell count flag": "enough cells to score", "call": "inactive"}
{"gene symbol": "Grin2c", "PubChem SID": "SID315467036", "p65 translocation robust z-score": 0.65, "nuclear/cytoplasmic p65 ratio, rep 1": 1.52, "nuclear/cytoplasmic p65 ratio, rep 2": 1.46, "low cell count flag": "enough cells to score", "call": "inactive"}
{"gene symbol": "Rbp1", "PubChem SID": "SID315468919", "p65 translocation robust z-score": 1.38, "nuclear/cytoplasmic p65 ratio, rep 1": 1.66, "nuclear/cytoplasmic p65 ratio, rep 2": 1.32, "low cell count flag": "enough cells to score", "call": "inactive"}
{"gene symbol": "Akr1c21", "PubChem SID": "SID315475460", "p65 translocation robust z-score": 0.34, "nuclear/cytoplasmic p65 ratio, rep 1": 1.6, "nuclear/cytoplasmic p65 ratio, rep 2": 1.8, "low cell count flag": "enough cells to score", "call": "inactive"}
{"gene symbol": "Ppp1r37", "PubChem SID": "SID315479026", "p65 translocation robust z-score": 0.28, "nuclear/cytoplasmic p65 ratio, rep 1": 1.75, "nuclear/cytoplasmic p65 ratio, rep 2": 1.74, "low cell count flag": "enough cells to score", "call": "inactive"}
{"gene symbol": "Irf9", "PubChem SID": "SID315467500", "p65 translocation robust z-score": -0.43, "nuclear/cytoplasmic p65 ratio, rep 1": 1.39, "nuclear/cytoplasmic p65 ratio, rep 2": 1.35, "low cell count flag": "enough cells to score", "call": "inactive"}
{"gene symbol": "Usp25", "PubChem SID": "SID315470775", "p65 translocation robust z-score": 0.55, "nuclear/cytoplasmic p65 ratio, rep 1": 1.57, "nuclear/cytoplasmic p65 ratio, rep 2": 1.6, "low cell count flag": "enough cells to score", "call": "inactive"}
{"gene symbol": "Rgs9", "PubChem SID": "SID315468971", "p65 translocation robust z-score": -1.51, "nuclear/cytoplasmic p65 ratio, rep 1": 1.3, "nuclear/cytoplasmic p65 ratio, rep 2": 1.24, "low cell count flag": "enough cells to score", "call": "inactive"}
{"gene symbol": "Atat1", "PubChem SID": "SID315474696", "nuclear/cytoplasmic p65 ratio, rep 1": 0.591, "nuclear/cytoplasmic p65 ratio, rep 2": 1.27, "low cell count flag": "fewer than 50 cells per well; well left out of scoring", "call": "inactive"}

In a second layout: results already given.
gene symbol	PubChem SID	p65 translocation robust z-score	nuclear/cytoplasmic p65 ratio, rep 1	nuclear/cytoplasmic p65 ratio, rep 2	low cell count flag	call
Rgs9	SID315468971	-1.51	1.3	1.24	enough cells to score	inactive
Atat1	SID315474696		0.591	1.27	fewer than 50 cells per well; well left out of scoring	inactive
